# In patent US20070224199A1:
# Sequences of proteins named here, by UniProt entry; tags and fusion partners are left off. A change or cut given only in a name is not applied to a line headed by its entry. Residues count along the entry.
# UniProt O14746: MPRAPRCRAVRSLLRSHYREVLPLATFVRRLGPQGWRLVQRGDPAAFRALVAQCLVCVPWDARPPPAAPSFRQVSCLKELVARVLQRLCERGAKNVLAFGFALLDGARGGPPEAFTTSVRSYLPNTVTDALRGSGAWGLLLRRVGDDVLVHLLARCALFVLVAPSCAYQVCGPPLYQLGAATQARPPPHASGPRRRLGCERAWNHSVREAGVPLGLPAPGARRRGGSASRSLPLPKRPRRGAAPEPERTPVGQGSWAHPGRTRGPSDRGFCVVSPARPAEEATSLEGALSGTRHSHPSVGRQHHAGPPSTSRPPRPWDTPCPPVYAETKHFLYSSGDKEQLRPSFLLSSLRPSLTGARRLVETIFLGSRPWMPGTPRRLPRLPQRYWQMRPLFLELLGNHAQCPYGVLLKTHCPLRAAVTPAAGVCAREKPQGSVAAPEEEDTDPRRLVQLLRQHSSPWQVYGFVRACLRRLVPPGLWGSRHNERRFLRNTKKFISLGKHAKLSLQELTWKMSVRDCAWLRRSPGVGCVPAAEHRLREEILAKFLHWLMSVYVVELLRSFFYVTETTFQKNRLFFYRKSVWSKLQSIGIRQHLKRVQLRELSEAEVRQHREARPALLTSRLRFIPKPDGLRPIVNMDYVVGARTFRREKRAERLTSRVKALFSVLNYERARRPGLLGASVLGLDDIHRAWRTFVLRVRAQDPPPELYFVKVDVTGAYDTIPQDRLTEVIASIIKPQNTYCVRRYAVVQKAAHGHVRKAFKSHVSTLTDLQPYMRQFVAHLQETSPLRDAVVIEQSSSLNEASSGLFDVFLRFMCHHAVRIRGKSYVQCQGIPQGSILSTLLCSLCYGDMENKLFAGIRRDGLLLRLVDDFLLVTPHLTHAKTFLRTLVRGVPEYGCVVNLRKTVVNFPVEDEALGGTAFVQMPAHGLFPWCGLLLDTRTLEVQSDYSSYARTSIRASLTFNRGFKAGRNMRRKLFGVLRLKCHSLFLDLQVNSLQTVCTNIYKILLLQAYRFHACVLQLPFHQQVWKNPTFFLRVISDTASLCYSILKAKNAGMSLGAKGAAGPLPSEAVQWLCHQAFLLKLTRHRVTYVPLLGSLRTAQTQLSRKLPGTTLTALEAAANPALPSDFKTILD
# pLexA-hTERT (amino acid 946-1132) bait: residues 946-1132 of O14746
# These are yes or no findings as the source states them, for the method shown. For some of these results: Binding seen in cells or lysates may run through a third protein. Some entries that bind do so weakly or less than the wild type. Where a sequence is shown, tags or fusion partners need not be part of it.
# Experiments:
# [1] = molecular target: pLexA-hTERT (amino acid 946-1132) bait (human) (UniProt O14746); test: yeast two-hybrid screen of a HeLa cDNA library, LacZ reporter
# [2] = molecular target: pLexA-hTERT (amino acid 946-1132) bait (human) (UniProt O14746); test: figure title; yeast two-hybrid assay (panel A) and co-immunoprecipitation (panels C, D)
# [3] = molecular target: pLexA-hTERT (amino acid 946-1132) bait (human) (UniProt O14746); test: yeast two-hybrid, LacZ reporter
# [4] = molecular target: hTERT-HA (C-terminal HA-tagged hTERT) (human) (UniProt O14746); test: co-immunoprecipitation from H1299 cells (anti-HA IP, anti-V5 immunoblot), with ALLnN
binding [1],binding [2],binding [3],binding [4],Binder
binds,binds,binds,–,"MKRN1 prey (Makorin ring finger protein 1 clone from a HeLa cDNA library fused to the activation domain of vector pB42AD) (protein, not shown: large carriers) MAEAATPGTTATTSGAGAAAATAAAASPTPIPTVTAPSLGAGGGGGGSDGSGGGWTKQVTCRYFMHGVCKEGDNCRYSHDLSDSPYSVVCKYFQRGYCIYGDRCRYEHSKPLKQEEATATELTTKSSLAASSSLSSIVGPLVEMNTGEAESRNSNFATVGAGSEDWVNAIEFVPGQPYCGRTAPSCTEAPLQGSVTKEESEKEQTAVETKKQLCPYAAVGECRYGENCVYLHGDSCDMCGLQLLHPMDAAQRSQHIKSCIEAHEKDMELSFAVQRSKDMVCGICMEVVYEKANPSERRFGILSNCNHTYCLKCIRKWRSAKQFESKIIKSCPECRITSNFVIPSEYWVEEKEEKQKLILKYKEAMSNKACRYFDEGRGSCPFGGNCFYKHAYPDAGREEPQRQKVGTSSRYRAQRRNHFWELIEERENSNPFDNDEEEVVTFELGEMLLMLLAAGGDDELTDSEDEWDLFHDELEDFYDLDL"
–,–,–,binds,"MKRN1-V5 (enzyme, not shown: small tags and cut ends) MAEAATPGTTATTSGAGAAAATAAAASPTPIPTVTAPSLGAGGGGGGSDGSGGGWTKQVTCRYFMHGVCKEGDNCRYSHDLSDSPYSVVCKYFQRGYCIYGDRCRYEHSKPLKQEEATATELTTKSSLAASSSLSSIVGPLVEMNTGEAESRNSNFATVGAGSEDWVNAIEFVPGQPYCGRTAPSCTEAPLQGSVTKEESEKEQTAVETKKQLCPYAAVGECRYGENCVYLHGDSCDMCGLQLLHPMDAAQRSQHIKSCIEAHEKDMELSFAVQRSKDMVCGICMEVVYEKANPSERRFGILSNCNHTYCLKCIRKWRSAKQFESKIIKSCPECRITSNFVIPSEYWVEEKEEKQKLILKYKEAMSNKACRYFDEGRGSCPFGGNCFYKHAYPDAGREEPQRQKVGTSSRYRAQRRNHFWELIEERENSNPFDNDEEEVVTFELGEMLLMLLAAGGDDELTDSEDEWDLFHDELEDFYDLDL"
